Results from one PubChem assay

The results are deposited in PubChem (AID1053133; Broad Institute, 2014).

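Vaccinia-infected cells with a two-color viral stage reporter; Venus fluorescence read on a plate reader; the cell line is not named here; timing not stated here.
The test concentration is not given here.
Percent change in Venus reporter signal; lower (more negative) values mean stronger inhibition of that viral stage.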

Values are in %.
How 0% and 100% were set is not given here.
Common to all entries: measured here: Venus reporter, other viral stage.
This is a side read-out of the assay, for part of the compounds, not drawn at random.

SMILES	activity change (Venus) (%)
CN(C)C(=O)c1cccc(-c2ccc3c(c2)[C@H]2[C@H](CCN2C(=O)C2CCCC2)[C@H](CO)N3)c1	-27.76
C[C@@H]1CN([C@H](C)CO)S(=O)(=O)c2ccc(/C=C/c3ccccc3)cc2O[C@@H]1CN(C)Cc1cccnc1	-44.15
C[C@@H]1CN([C@@H](C)CO)C(=O)c2cc(NC(=O)Cc3cn(C)c4ccccc34)ccc2O[C@@H]1CN(C)Cc1ccc(C(F)(F)F)cc1	-29.76
COc1ccc([Si](C)(C)[C@H]2[C@H](CCO)O[C@@]3(C(=O)N4c5c(cc(OC)cc53)C(C)=CC4(C)C)[C@@H]2C)cc1	-50.77
O=C(Nc1ccc(F)cc1)N1CC(=O)N2[C@H](C1)[C@@H](c1ccc(-c3ccccc3)cc1)[C@@H]2CO	-42.36
COc1cccc(NC(=O)Nc2ccc3c(c2)C(=O)N(C)C[C@@H](OC)[C@H](C)CN(CC2CC2)[C@H](C)CO3)c1	-21.64
COc1ccc(CN(C)C[C@@H]2Oc3c(NC(=O)Nc4ccc(F)cc4)cccc3C(=O)N([C@@H](C)CO)C[C@@H]2C)cc1	-27.33
C[C@H]1CN([C@@H](C)CO)C(=O)c2cc(/C=C/c3ccccc3)cnc2O[C@H]1CN(C)Cc1ccccc1F	-21.32
O=C(c1cccnc1)N1CC(=O)N2[C@H](C1)[C@@H](c1ccc(C#CCC3CCCC3)cc1)[C@@H]2CO	-76.24
C[C@H]1CN([C@@H](C)CO)C(=O)c2cccc(NC(=O)C3CC3)c2O[C@@H]1CN(C)Cc1ccc(Oc2ccccc2)cc1	-41.45
C[C@H](CO)N1C[C@H](C)[C@H](CN(C)C(=O)Nc2ccc(C(F)(F)F)cc2)Oc2ncc(/C=C/c3ccccc3)cc2C1=O	-62.25
CCCC#Cc1ccc2c(c1)O[C@@H](CN(C)Cc1ccccn1)[C@H](C)CN([C@H](C)CO)S2(=O)=O	-60.18
N#Cc1ccc(-c2ccc3c(c2)[C@H]2[C@H](CCN2C(=O)C2CCCCC2)[C@@H](CO)N3)cc1	-75.88
Cc1ccc(S(=O)(=O)N(C)C[C@H]2Oc3ccc(NS(=O)(=O)c4ccc(Cl)cc4)cc3CC(=O)N([C@H](C)CO)C[C@@H]2C)cc1	-44.28
COc1ccc(S(=O)(=O)N(C)C[C@H]2Oc3c(NC(=O)Nc4cccc5ccccc45)cccc3C(=O)N([C@@H](C)CO)C[C@H]2C)cc1	-27.96
C[C@@H]1CN([C@H](C)CO)S(=O)(=O)c2ccc(/C=C/c3ccccc3)cc2O[C@H]1CN(C)C(=O)Nc1ccc(F)cc1	-55.88
C/C=C/c1ccc([C@H]2[C@@H](CO)N(c3nc(CC)cs3)[C@H]2CNC(C)C)cc1	-67.25
CC(C)CC#Cc1ccc2c(c1)O[C@@H](CN(C)C(=O)c1ccccc1)[C@@H](C)CN([C@@H](C)CO)S2(=O)=O	-43.43
C[C@@H]1CN([C@H](C)CO)C(=O)c2cc(NC(=O)Nc3ccc(F)cc3)ccc2O[C@@H](C)CCCCO[C@H]1CN(C)C(=O)c1ccccc1	-46.63
C[C@@H]1CN([C@H](C)CO)C(=O)c2c(c3ccccc3n2C)-c2ccccc2CO[C@H]1CN(C)Cc1cccc(C(F)(F)F)c1	-50.95
CC(C)NC(=O)N1[C@H](C#N)[C@H](c2ccc(C#CC3CCCCC3)cc2)[C@H]1CO	-28.19
CCC(=O)N1CC2(CN(Cc3ccc(Cl)cc3)C2)c2c(n(C)c3cc(OC)ccc23)[C@H]1CO	-49.94
C[C@@H]1CN([C@H](C)CO)C(=O)c2cc(C#CC3CCCC3)cnc2O[C@H]1CN(C)C(=O)C1CCCCC1	-42.99
C[C@@H]1CN([C@@H](C)CO)S(=O)(=O)c2ccc(-c3cccc(F)c3)cc2O[C@@H]1CN(C)S(=O)(=O)c1ccccc1	-36.65
C[C@@H]1CN([C@@H](C)CO)C(=O)c2cc(NC(=O)C3CC3)ccc2O[C@@H]1CN(C)Cc1ccc(Cl)c(Cl)c1	-30.72
C[C@H](CO)N1C[C@H](C)[C@H](CN(C)C(=O)C2CC2)Oc2cc(/C=C/c3ccccc3)ccc2S1(=O)=O	-36.35
O=C(Nc1ccc2c(c1)[C@@H]1C[C@@H](CC(=O)N3CCCCC3)O[C@@H](CO)[C@@H]1O2)Nc1ccccc1F	-0.598
C[C@H]1CN([C@@H](C)CO)S(=O)(=O)c2ccc(C3=CCCC3)cc2O[C@H]1CN(C)C(=O)Nc1ccc2c(c1)OCO2	-40.11
COc1ccc([Si](C)(C)[C@@H]2[C@@H](CCn3cc([C@H](O)c4ccccc4)nn3)O[C@]3(C(=O)N(C)c4ccccc43)[C@H]2C)cc1	-53.37
C[C@@H]1CCCCO[C@H](CN(C)C(=O)Nc2ccc(C(F)(F)F)cc2)[C@H](C)CN([C@@H](C)CO)C(=O)c2cc(NS(C)(=O)=O)ccc2O1	-48.65
COc1ccc(NC(=O)N2CCCCN3[C@@H](CO)[C@H](c4ccc(C5=CCCCC5)cc4)[C@@H]3C2)cc1	-60.82
O=C(C[C@H]1CC[C@@H]2[C@H](COC[C@@H](O)CN2Cc2ccc(Cl)cc2)O1)NCc1ccccc1Cl	-22.07
C[C@H]1CCCCO[C@H](CN(C)C(=O)C2CCCCC2)[C@@H](C)CN([C@@H](C)CO)C(=O)c2cc(NC(=O)c3ccccc3)ccc2O1	-45.93
C[C@H](CO)N1C[C@H](C)[C@@H](CN(C)CC2CCCCC2)Oc2ccc(NS(=O)(=O)c3cccs3)cc2CC1=O	-45.53
CC(C)CC#Cc1ccc([C@@H]2[C@H](CO)N3C(=O)CN(C(=O)c4ccc5c(c4)OCO5)C[C@@H]23)cc1	-46.52
O=C(Nc1ccc(F)cc1)N1CCCCN2[C@H](CO)[C@H](c3ccc(-c4ccccc4F)cc3)[C@H]2C1	-84.3
COc1cccc(-c2ccc(C3[C@@H]4CN(C(=O)C5CCCC5)C[C@H]3N4)cc2)c1 (some centres undefined)	-76.67
CC(C)CC#Cc1ccc2c(c1)O[C@H](CN(C)C(=O)Nc1ccccc1F)[C@@H](C)CN([C@H](C)CO)S2(=O)=O	-24.69
C[C@H](CO)N1C[C@H](C)[C@@H](CN(C)Cc2cccc(F)c2)Oc2cc(C#CC3CC3)ccc2S1(=O)=O	-72.62
O=C(c1ccc2c(c1)OCO2)N1CC(=O)N2[C@H](C1)[C@H](c1ccc(C#Cc3ccccc3)cc1)[C@@H]2CO	-38.4
CN(C)c1ccc2c(c1)[C@@H]1C[C@H](CC(=O)NCc3ccc(Oc4ccccc4)cc3)O[C@@H](CO)[C@@H]1O2	-63.02
COc1cc(CN2C[C@@H]3N[C@H](C2)C3c2ccc(-c3ccncc3)cc2)cc(OC)c1 (some centres undefined)	-31.87

Some entries from above, unchanged:

SMILES	activity change (Venus) (%)
CC(C)CC#Cc1ccc2c(c1)O[C@H](CN(C)C(=O)Nc1ccccc1F)[C@@H](C)CN([C@H](C)CO)S2(=O)=O	-24.69
C[C@H]1CN([C@@H](C)CO)C(=O)c2cccc(NC(=O)C3CC3)c2O[C@@H]1CN(C)Cc1ccc(Oc2ccccc2)cc1	-41.45
O=C(c1cccnc1)N1CC(=O)N2[C@H](C1)[C@@H](c1ccc(C#CCC3CCCC3)cc1)[C@@H]2CO	-76.24
C[C@@H]1CN([C@@H](C)CO)C(=O)c2cc(NC(=O)C3CC3)ccc2O[C@@H]1CN(C)Cc1ccc(Cl)c(Cl)c1	-30.72